Measured values: patent publication US12319946B2, “Methods for producing modified bacteria for production of nitroaromatics” (priority 2018, dated 2025)

Tested on: E. coli BL21-GOLD (DE3) and E. coli ΔtrpRtyrApheA
Type: cell-based, Escherichia coli
Conditions: listed as 1-Trp

N[C@@H](Cc1c[nH]c2ccccc12)C(=O)O [L-Trp, L-tryptophan]
free 1-Trp in the fermentation medium: 142 ± 25 mg/L
